From paper PMC10366545, “Phosphoregulation of DNA repair via the Rad51 auxiliary factor Swi5–Sfr1” (The Journal of Biological Chemistry, 2023) come the findings set out here.

Changes are numbered by the printed parent chain. No constants are given. Whether binding was seen depends on the method and setting. Some binding calls cover weakened binding; strength is not graded here. For some assays here: Sequences can lack the tags named with a protein.

Assay [1] has as its target T1, Swi5–Sfr1 phosphomimetic mutant complex (S5S1-PM) (S. pombe) (UniProt Q9USV1+Q9UUB7).
T1 sequence 1: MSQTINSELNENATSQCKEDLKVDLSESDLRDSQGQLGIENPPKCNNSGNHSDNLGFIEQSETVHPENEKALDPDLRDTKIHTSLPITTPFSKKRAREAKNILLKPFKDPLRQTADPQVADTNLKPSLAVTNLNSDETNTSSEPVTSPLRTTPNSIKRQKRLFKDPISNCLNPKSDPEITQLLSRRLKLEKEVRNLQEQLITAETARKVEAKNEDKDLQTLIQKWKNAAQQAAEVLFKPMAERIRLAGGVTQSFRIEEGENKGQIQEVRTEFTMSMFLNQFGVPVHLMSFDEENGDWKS
T1 sequence 2: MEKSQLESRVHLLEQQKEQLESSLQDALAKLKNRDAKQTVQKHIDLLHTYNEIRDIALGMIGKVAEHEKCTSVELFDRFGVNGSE
Nature of the assay: pull-down; in solution; nickel resin holds hexahistidine-tagged S5S1; 500 nM each protein; 30 mM Tris-Cl 7.5, 100 mM KCl, 5 mM MgCl2, 1 mM ATP, 0.25 mM TCEP, 5% glycerol, 0.05% Tween-20; 30 °C 15 min, then resin 1 h at 4 °C; SDS-PAGE, Coomassie; both purified.

Assay [2] addresses T2, Fbh1 (S. pombe) (UniProt Q9USU3).
T2 sequence: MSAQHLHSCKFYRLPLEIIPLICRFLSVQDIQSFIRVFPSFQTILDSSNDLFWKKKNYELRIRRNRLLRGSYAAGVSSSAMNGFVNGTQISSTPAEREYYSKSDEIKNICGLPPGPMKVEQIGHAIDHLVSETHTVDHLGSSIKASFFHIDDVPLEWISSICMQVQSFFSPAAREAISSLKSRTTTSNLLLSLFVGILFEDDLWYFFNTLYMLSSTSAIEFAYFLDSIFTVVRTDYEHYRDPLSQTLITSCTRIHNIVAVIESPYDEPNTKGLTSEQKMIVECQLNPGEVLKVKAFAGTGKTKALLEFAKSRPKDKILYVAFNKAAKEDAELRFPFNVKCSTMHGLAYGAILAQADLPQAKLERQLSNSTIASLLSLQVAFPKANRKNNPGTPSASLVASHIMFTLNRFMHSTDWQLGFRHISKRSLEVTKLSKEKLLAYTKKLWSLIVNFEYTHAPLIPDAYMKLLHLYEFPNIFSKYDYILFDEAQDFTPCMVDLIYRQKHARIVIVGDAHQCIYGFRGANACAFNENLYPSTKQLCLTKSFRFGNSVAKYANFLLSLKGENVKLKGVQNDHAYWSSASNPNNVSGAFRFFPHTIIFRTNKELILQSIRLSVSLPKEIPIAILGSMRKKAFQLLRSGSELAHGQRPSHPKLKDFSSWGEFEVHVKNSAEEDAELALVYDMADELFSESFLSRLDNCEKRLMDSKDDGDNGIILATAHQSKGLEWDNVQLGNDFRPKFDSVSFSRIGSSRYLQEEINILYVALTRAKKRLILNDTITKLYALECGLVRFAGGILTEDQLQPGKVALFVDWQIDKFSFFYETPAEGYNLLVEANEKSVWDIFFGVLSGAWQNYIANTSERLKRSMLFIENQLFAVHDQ
The experiment in a line: co-purification; Fbh1 purified in complex with Skp1; SDS-PAGE and Coomassie staining (Fig. S1B); how it was purified is not told.

Assay [3] has as its target T3, Sfr1 nonphosphorylatable mutant (Sfr1 chain of S5S1-NON) (S. pombe) (UniProt Q9USV1).
T3 sequence: T1 sequence 1 with D24A, D73A, D109A, D116A, D165A
Nature of the assay: SEC; His6-Sfr1 co-expressed with Swi5 in E. coli and purified together as a complex; 16/60 Superdex 200 pg in H buffer (25 mM Hepes-KOH pH 7.5, 10% glycerol, 0.5 mM TCEP) with 200 mM KCl, 4 °C; both purified. A general note: In gel filtration, larger molecules generally elute earlier.

Assay [4] concerns the target T4, Sfr1 phosphomimetic mutant (Sfr1 chain of S5S1-PM) (S. pombe) (UniProt Q9USV1).
T4 sequence: T1 sequence 1
Described as above.

The target of assay [5] is T5, Sfr1 (wildtype, N-terminally hexahistidine-tagged) (S. pombe) (UniProt Q9USV1).
T5 sequence: T1 sequence 1 with D24S, D73T, D109S, D116S, D165S
The description is as above.

B1: Rad51 (natural protein, S. pombe, UniProt P36601 1-365, looked up)
chain: MADTEVEMQVSAADTNNNENGQAQSNYEYDVNVQDEEDEAAAGPMPLQMLEGNGITASDIKKIHEAGYYTVESIAYTPKRQLLLIKGISEAKADKLLGEASKLVPMGFTTATEYHIRRSELITITTGSKQLDTLLQGGVETGSITELFGEFRTGKSQICHTLAVTCQLPIDMGGGEGKCLYIDTEGTFRPVRLLAVADRYGLNGEEVLDNVAYARAYNADHQLELLQQAANMMSESRFSLLVVDSCTALYRTDFSGRGELSARQMHLARFMRTLQRLADEFGIAVVITNQVVAQVDGISFNPDPKKPIGGNILAHSSTTRLSLRKGRGEQRICKIYDSPCLPESEAIFAINSDGVGDPKEIIAPV
notes: Rad51 recombinase, S. pombe; also called S. pombe Rad51; Rad51-ssDNA filament
As for B1, the binding entry in assay [1] is given as “binds weakly”.

B2: Skp1 (protein, UniProt Q9Y709 1-161)
chain: MSKIKLISSDNEEFVVDQLIAERSMLIKNMLEDVGEINVPIPLPNVSSNVLRKVLEWCEHHKNDLYSGTEEESDIRLKKSTDIDEWDRKFMAVDQEMLFEIVLASNYLDIKPLLDTGCKTVANMIRGKSPEDIRKTFNIPNDFTPEEEEQIRKENEWAEDR
Turning to B2, the binding entry in assay [2] is “binds”.

B3: Swi5 (protein, UniProt Q9UUB7 1-85)
chain: T1 sequence 2
For the molecule B3, the binding result in assay [3], in assay [4] and in assay [5] was “binds” in each case.
